No constants are given. Whether binding was seen depends on the method and setting. A result given as binding can be weak or reduced; the word gives no strength. Sequences can lack the tags named with a protein.

This assay deals with 20S proteasome (source not stated for the experiment). The experiment in a line: native MS with MS/MS of the isolated 20S proteasome peaks.

B1: human NQO2 (recombinant, His-TEV fragment removed) (enzyme, UniProt P16083 1-231, looked up)
chain: MAGKKVLIVYAHQEPKSFNGSLKNVAVDELSRQGCTVTVSDLYAMNLEPRATDKDITGTLSNPEVFNYGVETHEAYKQRSLASDITDEQKKVREADLVIFQFPLYWFSVPAILKGWMDRVLCQGFAFDIPGFYDSGLLQGKLALLSVTTGGTAEMYTKTGVNGDSRYFLWPLQHGTLHFCGFKVLAPQISFAPEIASEEERKGMVAAWSQRLQTIWKEEPIPCTAHWHFGQ
Regarding B1, the binding entry is given as “binds”.

(Values after patent US20200362018A1.)
